This is one part of the list. Shown are side measurements of this screen, not its main read-out; they come without a call. The list favours compounds with an active or inconclusive main result. Potencies come from curve fits of mixed quality, noted in brackets.

The record followed here is PubChem BioAssay AID493014 (National Center for Advancing Translational Sciences (NCATS), 2011).

The test can be described thus: qHTS Assay to Find Inhibitors of Chronic Active B-Cell Receptor Signaling. As to conditions: ABC-DLBCL IkBa-CBG/CBR reporter, luminescence ratio (green luciferase fused to IkBa over red control in TMD8 lymphoma cells), 4 h. The essentials:
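Cell line TMD8 (human ABC DLBCL), stably expressing tet-inducible CBG68-IkBa fusion and CBR; IMDM/0.5% FBS; cpd up to 46 uM; dox induction, 4 h, 37C/5% CO2; dual luminescence; green/red ratio; MG132 control.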
In general terms: qHTS replaces the single test concentration by a dilution series.

[1] abbreviates: measured here: CBR red luminescence, cell number.
The mark [2] stands for this setting: measured here: IkBa-CBG green luminescence.

A word on the AC50: it is the concentration at which the activity in the assay is half-maximal. Take `Cn1cccc1C(=O)OCc1csc(-c2ccccc2)n1`: the half-maximal activity concentration (AC50) under setting [1] is 5.01 µM [falling, partial curve]. On the same count and under the same terms, under `CC(C)Cc1cc(C(=O)NCCc2ccccc2)no1` stands 18.4 µM [falling, single point].

Turning to `COc1ccc(NC(=O)c2cc3c(CO)cnc(C)c3oc2=Nc2cccc(C)c2)c(OC)c1`, the half-maximal activity concentration (AC50) under setting [1] is 35.5 µM [rising, single point]. On the same count and under the same terms, under `O=C(CN1C(=O)c2cccnc2Oc2ccc(Cl)cc21)NC1CCCC1` stands 3.55 µM [falling, partial curve, poor fit]; under `O=C(Nc1cccc(F)c1)Nc1ccc2c(c1)C(=O)OC2`, 0.891 µM [rising, full curve, poor fit]. `CCCCn1c(NS(=O)(=O)c2ccc(C)cc2)c(S(=O)(=O)c2ccccc2)c2nc3ccccc3nc21`: under setting [2], the AC50 is 3.66 µM [falling, full curve, poor fit]. Turning to `COc1ccccc1/C=C1\SC(=S)N(N2C(=O)CCCC2=O)C1=O`, the AC50 under setting [1] was 12.6 µM [falling, partial curve, poor fit]. Turning to `O=[N+]([O-])c1cc(O)c2ncccc2c1`, the AC50 reads like this: under setting [1], 0.447 µM [rising, partial curve, poor fit]; under setting [2], 1.26 µM [falling, full curve, poor fit].

On to `COc1ccc(C2Nc3ccccc3C(=O)N2Cc2ccco2)cc1CN1C(=O)c2ccccc2C1=O` (configuration not stated), for which the half-maximal activity concentration (AC50) under setting [1] was 3.55 µM [falling, full curve]. On the same count and under the same terms, under `CC(=O)Nc1ccc(/C=N/Nc2nc3ccccc3[nH]2)cc1` stands 18.4 µM [falling, single point]; under `Cc1ccc(NC(=O)c2cnc(SCC(=O)N3CCOCC3)n(C)c2=O)cc1`, 10 µM [falling, single point]. In the case of `COC(=O)COc1cccc(NC(=O)c2ccc(Cl)cc2)c1`, the half-maximal activity concentration (AC50) under setting [1] was 15.8 µM [falling, single point]. The same measure, in the same setting: under `CCOC(=O)N1CCN(C(=O)CCCOc2ccccc2)CC1` stands 29.1 µM [rising, single point]; under `CCOc1ccccc1NC(=O)CC1SC(=N)N(c2ccccc2)C1=O` (configuration not stated), 35.5 µM [falling, single point]. On to `O=Cc1ccc(-c2ccc(C(=O)O)cc2)o1`, for which the AC50 under setting [1] was 5.01 µM [falling, partial curve]. The same measure, in the same setting: with `COc1ccc(CN2CCN(Cc3cccc(OC)c3)C(CCO)C2)cc1` (configuration not stated) the figure was 6.31 µM [rising, single point]. For the compound `Cc1ccc2c(=O)[nH]c(Nc3nc(C)cc(-c4ccccc4)n3)nc2c1`, the concentration at half-maximal activity (AC50) under setting [1] is 0.282 µM [falling, full curve, poor fit]. Still for that read-out and setting: with `CN1CCN(c2oc(/C=C/c3ccccc3)nc2C#N)CC1` the figure was 35.5 µM [rising, single point].

`COc1ccc(NC(=O)c2sccc2C)cn1`: the half-maximal activity concentration (AC50) under setting [1] is 15.8 µM [falling, partial curve, poor fit].

Turning to `CCOC(=O)N1CCC(NC(=O)c2ccc3c(c2)N=C(C)c2c(C)ccc(C)c2S3)CC1`, the concentration at half-maximal activity (AC50) under setting [1] was 3.55 µM [rising, single point] and the AC50 under setting [2] is 7.08 µM [falling, full curve]. For the compound `Cc1cc(Cn2nnnc2-c2ccncc2)cc(C)c1O`, the AC50 under setting [1] was 5.01 µM [rising, full curve, poor fit]. On the same count and under the same terms, under `COC(=O)c1ccccc1NC(=O)c1cccs1` stands 25.9 µM [rising, single point].

For the compound `CCCCNS(=O)(=O)c1ccc2nc(-c3cccnc3)cc(C(=O)NCC(OC)OC)c2c1`, under setting [1], the AC50 is 10 µM [rising, partial curve, poor fit]. Regarding `COc1ccc(-n2c(COc3ccc(Cl)cc3)nnc2SCc2ccc(C#N)cc2)cc1`, the AC50 under setting [1] is 2.91 µM [falling, full curve]. Take `N=c1c2c(ncn1CCN1CCOCC1)Oc1ccc3ccccc3c1C2c1ccccc1` (configuration not stated): the AC50 under setting [1] is 3.26 µM [falling, partial curve, poor fit]. As for `COc1ccc(N2C(=O)N3[C@H](c4ccc(Cl)cc4)[C@@H]4C(=O)N(C5CCCCC5)C(=O)[C@@H]4[C@]3(C)C2=O)cc1`, the concentration at half-maximal activity (AC50) under setting [2] is 3.55 µM [rising, full curve, poor fit]. Turning to `COc1ccc(S(=O)(=O)Nc2ccc3c(c2)C(=O)N([C@H](C)CO)C[C@H](C)[C@@H](CN(C)S(C)(=O)=O)O3)cc1`, under setting [1], the AC50 was 20.6 µM [rising, single point]. Same read-out and setting: under `COc1ccc(/C=N/Nc2nncn2N)cc1Br` stands 35.5 µM [falling, single point]; under `O=C(CCl)Nc1nc(-c2ccco2)c(-c2ccco2)s1`, 7.31 µM [falling, partial curve].

As for `Cc1ccc(C(=O)NC2CCc3ccccc3C2=O)cc1` (configuration not stated), the AC50 under setting [1] is 22.4 µM [falling, partial curve]. Regarding `COc1cc2c3nnc(-c4ccc(F)cc4)c-3cn(Cc3ccccc3)c2cc1OC`, under setting [1], the half-maximal activity concentration (AC50) was 29.1 µM [rising, single point]. Same read-out and setting: under `Cc1cc(/C=N\NC(=O)COc2cccc3cccnc23)c(C)n1-c1ccccc1` stands 5.17 µM [rising, full curve, poor fit]; under `Cc1ccc2nc(NCc3ccccc3)c(C=NCc3cccnc3)c(=O)n2c1`, 4.47 µM [rising, full curve, poor fit]; under `COc1ccc(C(=O)Nc2cccc(C(=O)NCc3ccco3)c2)cc1`, 35.5 µM [falling, single point]. The same measure, in the same setting: under `O=c1cc(CN2CCOCC2)c2c(ccc3ccccc32)o1` stands 10 µM [rising, partial curve, poor fit]. The same measure, in the same setting: with `CC(NC(=S)Nc1cccc(C(F)(F)F)c1)C(C)(C)C` (configuration not stated) the figure was 0.0891 µM [falling, full curve, poor fit]; with `O=C1CN(C(=O)COC(=O)CCSc2ccccc2Cl)c2ccccc2N1`, 8.2 µM [rising, partial curve].

In the case of `Cc1ccccc1NC(=O)c1ccc(-c2ccc(Cl)cc2Cl)o1`, the half-maximal activity concentration (AC50) under setting [1] is 16.4 µM [falling, partial curve]. For the compound `Cn1c(Nc2ccc(Cl)cc2)cc(=O)n(C)c1=O`, the AC50 under setting [1] is 7.08 µM [rising, partial curve]. `CC(C)OC(=O)c1ccc(NC(=S)NC(=O)c2cncc(Br)c2)cc1`: the concentration at half-maximal activity (AC50) under setting [1] is 6.31 µM [rising, partial curve, poor fit].
